Source: paper PMC10115881, “Disrupting the α-synuclein-ESCRT interaction with a peptide inhibitor mitigates neurodegeneration in preclinical models of Parkinson’s disease” (Nature Communications, 2023)
These are yes or no findings as the source states them, for the method shown. In cells and extracts the contact can be indirect. Some binding calls cover weakened binding; strength is not graded here. Where a sequence is shown, tags or fusion partners need not be part of it.

Target: Flag-CHMP2B (CHarged Multivesicular body Protein 2B) (UniProt Q9UQN3)
Experiment: co-IP; HEK293T co-transfected with Flag-tagged target protein, HA-tagged source protein and GFP-tagged peptide or GFP; lysed after 48 h in RIPA buffer; precipitated with Flag beads; immunoblot

| Binder | binding |
| --- | --- |
| IPIQLKA [GFP-PDpep1 (IPIQLKA)] | binds |
| DEEIERQLKALG [GFP-PDpep1.3 (…)] | binds |
